This assay in a line: qHTS Assay to Find Inhibitors of Chronic Active B-Cell Receptor Signaling. As to conditions: ABC-DLBCL IkBa-CBG/CBR reporter, luminescence ratio (green luciferase fused to IkBa over red control in TMD8 lymphoma cells), 4 h. The essentials:
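TMD8 ABC-DLBCL cells carrying doxycycline-inducible green luciferase fused to IkappaBalpha plus unfused red luciferase were exposed to compounds (up to 46 uM) for 4 hrs at 37C. Activity came from the overlap-corrected green/red luminescence ratio.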
(In qHTS, concentration-response curves come from the screen itself.)

Setting [1] is: measured here: CBR red luminescence, cell number.
The mark [2] stands for this setting: measured here: IkBa-CBG green luminescence.

The list shows a part of the results. Shown are side measurements of this screen, not its main read-out; they come without a call. The list favours compounds with an active or inconclusive main result. Words in brackets tell the shape of the fitted curve; partial curves, single points and poor fits give uncertain potencies.

Broadly, the AC50 is the midpoint of the concentration-response curve, whichever way the signal moves.

Take `O=c1c(Cl)c(N2CCOCC2)cnn1-c1nc2ccccc2[nH]1`: the AC50 under setting [1] is 11.2 µM [falling, partial curve]. With `C=CCOc1c(CNn2cn[nH]c2=S)cccc1OC`, the AC50 under setting [1] was 35.5 µM [rising, single point]. The same measure, in the same setting: the value for `O/N=C(/c1ccccc1)c1cc2cc(Br)cc(Br)c2o1` was 10 µM [rising, single point]; that for `Cc1ccc(/C=C/c2nc3ccccc3[nH]2)o1` was 10 µM [falling, partial curve, poor fit]; that for `O=C(CN1C(=O)CCC1=O)Nc1nc(-c2ccc(Cl)s2)cs1` was 1.16 µM [falling, partial curve, poor fit].

As for `FC(F)C(F)(F)C(F)(F)C(F)(F)c1cc(-c2ccccc2)n[nH]1`, the AC50 under setting [1] is 4.61 µM [rising, full curve]. Regarding `C[C@H](CO)N1C[C@H](C)[C@@H](CN(C)Cc2ccc(-c3ccccc3)cc2)Oc2c(NS(=O)(=O)c3ccc(F)cc3)cccc2C1=O`, under setting [1], the AC50 was 8.2 µM [falling, partial curve, poor fit]. Still for that read-out and setting: the value for `COC(=O)c1sccc1NC(=O)COc1ccc(Cl)cc1` was 5.8 µM [falling, partial curve]. On the same count and under the same terms, in the case of `Cc1cs/c(=N/C(=S)Nc2ccccc2)n1C` it was 16.4 µM [falling, single point]; in that of `Cc1ccccc1Oc1cc(NC(=O)CCCn2nc(C)c([N+](=O)[O-])c2C)cc([N+](=O)[O-])c1`, 18.4 µM [falling, single point]; in that of `Nc1[nH]nc2nc3ccccc3cc12`, 10 µM [falling, partial curve, poor fit]. Still for that read-out and setting: the value for `O=C(NCCS(=O)(=O)NCc1ccc(F)cc1)c1ccccc1` was 0.651 µM [rising, full curve, poor fit]; that for `CCOc1ccc(NS(=O)(=O)c2ccc3[nH]cc(C(=O)NCC4CCCO4)c(=O)c3c2)cc1` (configuration not stated) was 3.98 µM [falling, partial curve, poor fit]. For the compound `O=C(O)c1ccc(NC2=C/C(=N/S(=O)(=O)c3ccccc3)c3ccccc3C2=O)cc1`, the AC50 reads like this: under setting [1], 5.62 µM [falling, full curve]; under setting [2], 5.62 µM [rising, full curve, poor fit]. With `COc1cc(SC)ccc1C(=O)Nc1ccc2c(c1)OCO2`, the AC50 under setting [1] is 35.5 µM [falling, single point].

Regarding `CCOC(=O)N1CCN(Cc2nc(N)nc(Nc3ccc(OC)cc3)n2)CC1`, the AC50 under setting [1] is 8.2 µM [rising, partial curve]. Same read-out and setting: the value for `Cc1ccc(Cn2c(=S)[nH]c3ccc(N4CCOCC4)cc3c2=O)o1` was 0.731 µM [falling, full curve, poor fit]; that for `Cc1cccc(Cc2c(C)nc3nc(SCC(=O)NCc4ccco4)nn3c2C)c1` was 17.8 µM [falling, single point].

`COc1ccc(Br)cc1CNc1ccccc1`: the AC50 under setting [1] was 2.82 µM [rising, full curve, poor fit]. `O=C(NCCc1ccccc1)C(=O)NCC1CCCO1` (configuration not stated): the AC50 under setting [1] was 6.51 µM [rising, single point].

With `CN(C)S(=O)(=O)c1ccc2nc(NC(=O)c3cccs3)sc2c1`, the AC50 under setting [1] was 29.1 µM [falling, single point]. In the case of `FC(F)(F)c1cc(-c2ccccc2)nc(NCc2cccnc2)n1`, the AC50 under setting [1] was 1.58 µM [falling, partial curve, poor fit]. As for `O=C(COC(=O)c1cccc(C(=O)OCC(=O)c2ccc(Br)cc2)n1)c1ccc(Br)cc1`, the AC50 under setting [1] was 29.1 µM [rising, single point].

For the compound `O=C1Nc2ccc(Cl)cc2[C@@](C#CC2CC2)(C(F)(F)F)O1`, the AC50 runs as follows: under setting [1], 1.41 µM [rising, partial curve, poor fit]; under setting [2], 5.62 µM [falling, partial curve, poor fit]. `NC(=O)COC(=O)[C@@H]1CC(O)CN1S(=O)(=O)c1ccc2c(c1)OCCO2` (some centres not stated): under setting [1], the AC50 was 0.794 µM [rising, single point]. Turning to `Cc1cccc([C@@H]2[C@@H]3C(=O)N(Cc4ccccc4)C(=O)[C@@H]3[C@]3(CC(C)C)C(=O)N(c4cccc(F)c4)C(=O)N23)c1`, under setting [1], the AC50 was 6.51 µM [falling, partial curve].

As for `Cc1cccc2sc(NC(=O)C3c4ccccc4Oc4ccccc43)nc12`, the half-maximal activity concentration (AC50) under setting [1] is 7.08 µM [falling, partial curve, poor fit]. Regarding `COCC(C)n1c(SCC(=O)NC(=O)NCc2ccccc2)nc2ccccc2c1=O` (configuration not stated), the AC50 under setting [1] is 3.26 µM [rising, single point]. On the same count and under the same terms, in the case of `O=C(N/N=C/c1sc(=O)n(-c2ccccc2)c1Cl)c1ccccc1` it was 29.1 µM [falling, single point]; in that of `CC1CCN(C2=C(NS(=O)(=O)c3ccccc3)C(=O)c3ccccc3C2=O)CC1`, 0.631 µM [rising, full curve, poor fit]; in that of `CCc1ccc(/C=N\NC(=O)c2ccc(Br)o2)s1`, 25.9 µM [falling, partial curve, poor fit]. As to `O=C(N/N=C/c1cccc(C(F)(F)F)c1)c1ccccc1O`, the AC50 under setting [1] was 4.47 µM [falling, partial curve, poor fit]. Take `CCN(C[C@H]1N[C@@](CC)(C(=O)OC)[C@H]2C(=O)N(Cc3ccccc3)C(=O)[C@@H]12)S(=O)(=O)c1ccc(C(F)(F)F)cc1`: the AC50 under setting [1] is 6.51 µM [falling, single point]. Turning to `COCCCNC(=S)N/N=C/c1cccc(OC)c1O`, the AC50 under setting [1] is 0.398 µM [falling, full curve, poor fit]. On to `CN(C)/C=C/C(=O)c1ccc(Oc2ccccc2)cc1`, for which, under setting [1], the AC50 is 6.31 µM [falling, single point].

As for `O=C(Nc1ccc(Br)cc1)c1cccc(N2C(=O)C3C4CCC(C4)C3C2=O)c1` (configuration not stated), under setting [1], the AC50 is 20.6 µM [falling, partial curve]. For `Fc1ccc(-c2noc(-c3ccc4c(c3)CCO4)n2)cc1`, the half-maximal activity concentration (AC50) under setting [1] was 28.2 µM [rising, single point].

Regarding `CCOc1ccc(NC(=O)c2cccc3c2C(=O)N(CCOC)C3)cc1`, the AC50 under setting [1] was 2.91 µM [rising, full curve, poor fit]. On to `CC1CCN(CCCCOc2ccccc2F)CC1`, for which the concentration at half-maximal activity (AC50) under setting [1] was 20 µM [rising, single point].

On to `O=C1OC(Nc2nc(-c3ccc(F)cc3)cs2)c2ccccc21` (configuration not stated), for which the AC50 under setting [1] is 4.47 µM [falling, partial curve].

The values are drawn from PubChem BioAssay AID493014 (National Center for Advancing Translational Sciences (NCATS), 2011).
